{
  "sequences": {"note": "Chains of the proteins cited; added tags and fusions are not shown. Lines headed by an entry give the natural chain unless they say otherwise; changes in a name come on top.", "UniProt Q13761": "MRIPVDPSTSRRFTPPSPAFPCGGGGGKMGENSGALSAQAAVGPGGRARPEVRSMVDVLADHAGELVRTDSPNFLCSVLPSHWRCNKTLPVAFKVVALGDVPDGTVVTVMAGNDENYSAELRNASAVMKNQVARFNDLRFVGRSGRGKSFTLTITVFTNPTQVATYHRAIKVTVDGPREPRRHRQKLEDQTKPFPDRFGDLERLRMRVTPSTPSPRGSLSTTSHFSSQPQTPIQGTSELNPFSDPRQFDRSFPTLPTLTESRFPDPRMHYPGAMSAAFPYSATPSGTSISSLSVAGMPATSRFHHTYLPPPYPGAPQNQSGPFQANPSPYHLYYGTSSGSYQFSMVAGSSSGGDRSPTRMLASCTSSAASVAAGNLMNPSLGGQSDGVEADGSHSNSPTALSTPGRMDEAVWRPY", "UniProt P51532": "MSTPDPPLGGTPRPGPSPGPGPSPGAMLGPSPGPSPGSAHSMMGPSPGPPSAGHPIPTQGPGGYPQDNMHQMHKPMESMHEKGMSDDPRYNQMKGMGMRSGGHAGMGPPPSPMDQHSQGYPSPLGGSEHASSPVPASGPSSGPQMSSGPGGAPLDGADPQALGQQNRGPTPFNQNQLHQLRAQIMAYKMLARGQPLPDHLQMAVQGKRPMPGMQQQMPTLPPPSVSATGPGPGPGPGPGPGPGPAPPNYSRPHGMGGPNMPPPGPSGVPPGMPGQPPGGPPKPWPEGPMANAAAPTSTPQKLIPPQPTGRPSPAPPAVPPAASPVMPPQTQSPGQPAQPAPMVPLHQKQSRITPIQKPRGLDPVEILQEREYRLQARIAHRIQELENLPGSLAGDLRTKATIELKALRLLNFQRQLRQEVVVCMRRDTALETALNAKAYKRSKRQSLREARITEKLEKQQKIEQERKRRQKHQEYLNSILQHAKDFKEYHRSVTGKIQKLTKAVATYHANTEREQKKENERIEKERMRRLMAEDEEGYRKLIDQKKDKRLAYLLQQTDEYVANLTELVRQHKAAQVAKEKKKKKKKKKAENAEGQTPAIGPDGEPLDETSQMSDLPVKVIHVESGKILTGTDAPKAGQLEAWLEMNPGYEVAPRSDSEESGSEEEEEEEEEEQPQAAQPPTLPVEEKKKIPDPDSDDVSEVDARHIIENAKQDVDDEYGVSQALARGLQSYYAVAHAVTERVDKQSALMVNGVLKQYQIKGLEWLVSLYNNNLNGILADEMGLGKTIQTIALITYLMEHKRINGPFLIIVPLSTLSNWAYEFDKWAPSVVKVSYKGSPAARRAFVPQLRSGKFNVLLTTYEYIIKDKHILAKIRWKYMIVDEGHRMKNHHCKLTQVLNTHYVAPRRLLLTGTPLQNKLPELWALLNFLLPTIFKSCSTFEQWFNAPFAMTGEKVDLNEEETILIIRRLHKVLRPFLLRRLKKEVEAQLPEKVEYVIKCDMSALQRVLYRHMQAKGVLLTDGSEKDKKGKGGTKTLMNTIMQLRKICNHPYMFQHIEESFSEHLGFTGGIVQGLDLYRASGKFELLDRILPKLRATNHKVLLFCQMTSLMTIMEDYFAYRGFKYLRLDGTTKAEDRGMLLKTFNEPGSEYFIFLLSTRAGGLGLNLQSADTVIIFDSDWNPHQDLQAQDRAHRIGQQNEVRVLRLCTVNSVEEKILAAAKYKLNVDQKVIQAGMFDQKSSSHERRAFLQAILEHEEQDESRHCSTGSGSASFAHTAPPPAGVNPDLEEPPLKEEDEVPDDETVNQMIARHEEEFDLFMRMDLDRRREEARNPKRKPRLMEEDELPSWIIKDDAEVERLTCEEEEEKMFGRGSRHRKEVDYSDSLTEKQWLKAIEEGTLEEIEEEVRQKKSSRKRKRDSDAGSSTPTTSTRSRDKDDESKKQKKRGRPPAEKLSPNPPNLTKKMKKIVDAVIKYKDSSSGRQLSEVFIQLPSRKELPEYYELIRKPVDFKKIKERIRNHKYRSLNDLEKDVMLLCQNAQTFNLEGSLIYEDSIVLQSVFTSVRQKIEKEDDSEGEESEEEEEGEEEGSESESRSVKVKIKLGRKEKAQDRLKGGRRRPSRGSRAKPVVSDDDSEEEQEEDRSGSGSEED"},
  "source": "paper doi:10.1101/2024.08.16.608297",
  "assay_in_all_cases": "co-IP",
  "key": {"[1]": {"target": "His-tagged RUNX3 (C-terminal 6XHis) (human) (UniProt Q13761)"}, "[2]": {"target": "GST-Runx3 (pGEX4T-1-RUNX3 aa 49-187) (UniProt Q13761)"}, "[3]": {"target": "SMARCA4/Brg1 (endogenous, HGC-27) (human (endogenous in HGC-27)) (UniProt P51532)"}},
  "note": "Results are given in words; binding and its absence hold for the method and conditions named. In cells and extracts the contact can be indirect. Some results given as binding are weak or reduced against the parent protein; the word gives no strength.",
  "data": [
    {"substance": "GST-Runx3 (pGEX4T-1-RUNX3 aa 49-187) (from UniProt Q13761 49-187) (domain or fragment)", "values": [
      {"measurement": "binding", "setting": "[1]", "result": "binds"}
    ]},
    {"substance": "His-tagged RUNX3 (C-terminal 6XHis) (from UniProt Q13761 1-415)", "values": [
      {"measurement": "binding", "setting": "[2]", "result": "binds"}
    ]},
    {"substance": "Runx3 (endogenous, HGC-27) (from UniProt Q13761 1-415)", "values": [
      {"measurement": "binding", "setting": "[3]", "result": "binds"}
    ]}
  ]
}
